# Source: the supplement of paper PMC8728848
# Some of the results follow.
# Columns and labels:
# Assay in all cases: glycan array binding signal (z-score within array); higher = stronger binding
# Settings in all cases: glycan notation: IUPAC condensed, linker removed
# [1] = target: Neu5Ac(a2-8)Neu5Ac
# In short: (§1)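 From the Consortium for Functional Glycomics database, 3228 arrays were curated, keeping only those whose protein sequence was available. Binding is given as a within-array Z-score averaged across arrays sharing a protein sequence and across linkers. Negative Z-scores can be read as non-binding.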
# [2] = target: Neu5Ac(a2-8)Neu5Ac(a2-3)Gal(b1-3)GalNAc(b1-4)[Neu5Ac(a2-3)]Gal(b1-4)Glc
# In short: as §1
# [3] = target: Neu5Ac(a2-8)Neu5Ac(a2-3)Gal(b1-3)GalNAc(b1-4)[Neu5Ac(a2-8)Neu5Ac(a2-3)]Gal(b1-4)Glc
# In short: as §1
# [4] = target: Neu5Ac(a2-8)Neu5Ac(a2-3)Gal(b1-4)Glc
# In short: as §1
# [5] = target: Neu5Ac(a2-8)Neu5Ac(a2-3)Gal(b1-4)GlcNAc
# In short: as §1
# [6] = target: Neu5Ac(a2-8)Neu5Ac(a2-3)[Gal(b1-3)GalNAc(b1-4)]Gal(b1-4)Glc
# In short: as §1
# [7] = target: Neu5Ac(a2-8)Neu5Ac(a2-3)[GalNAc(b1-4)]Gal(b1-4)Glc
# In short: as §1
# [8] = target: Neu5Ac(a2-8)Neu5Ac(a2-8)Neu5Ac
# In short: as §1
# [9] = target: Neu5Ac(a2-8)Neu5Ac(a2-8)Neu5Ac(a2-3)Gal(b1-4)Glc
# In short: as §1
# [10] = target: Neu5Ac(a2-8)Neu5Ac(a2-8)Neu5Ac(a2-3)[Gal(b1-3)GalNAc(b1-4)]Gal(b1-4)Glc
# In short: as §1
# [11] = target: Neu5Ac(a2-8)Neu5Ac(a2-8)Neu5Ac(a2-3)[GalNAc(b1-4)]Gal(b1-4)Glc
# In short: as §1
# [12] = target: Neu5Ac(a2-8)Neu5Ac(a2-8)Neu5Ac(a2-8)Neu5Ac(a2-3)[GalNAc(b1-4)]Gal(b1-4)Glc
# In short: as §1
# [13] = target: Neu5Ac(a2-8)Neu5Gc(a2-3)Gal(b1-4)GlcNAc
# In short: as §1
# [14] = target: Neu5Ac(b2-6)Gal(b1-4)GlcNAc
# In short: as §1
# [15] = target: Neu5Ac(b2-6)GalNAc
# In short: as §1
# [16] = target: Neu5Ac9Ac(a2-3)Gal(b1-3)GlcNAc
# In short: as §1
# [17] = target: Neu5Ac9Ac(a2-3)Gal(b1-4)GlcNAc
# In short: as §1
# [18] = target: Neu5Ac9Ac(a2-6)Gal(b1-4)GlcNAc
# In short: as §1
# [19] = target: Neu5Gc(a2-3)Gal(b1-3)GlcNAc
# In short: as §1
# [20] = target: Neu5Gc(a2-3)Gal(b1-3)[Fuc(a1-4)]GlcNAc
# In short: as §1
# [21] = target: Neu5Gc(a2-3)Gal(b1-4)Glc
# In short: as §1
# [22] = target: Neu5Gc(a2-3)Gal(b1-4)GlcNAc
# In short: as §1
# [23] = target: Neu5Gc(a2-3)Gal(b1-4)GlcNAc(b1-3)Gal(b1-4)GlcNAc(b1-2)Man(a1-3)[Neu5Gc(a2-3)Gal(b1-4)GlcNAc(b1-3)Gal(b1-4)GlcNAc(b1-2)Man(a1-6)]Man(b1-4)GlcNAc(b1-4)GlcNAc
# In short: as §1
# [24] = target: Neu5Gc(a2-3)Gal(b1-4)[Fuc(a1-3)]GlcNAc
# In short: as §1
# [25] = target: Neu5Gc(a2-6)Gal(b1-4)GlcNAc
# In short: as §1
# [26] = target: Neu5Gc(a2-6)GalNAc
# In short: as §1
# [27] = target: Neu5Gc(a2-8)Neu5Ac(a2-3)Gal(b1-4)GlcNAc
# In short: as §1
# [28] = target: Neu5Gc(a2-8)Neu5Gc(a2-3)Gal(b1-4)GlcNAc
# In short: as §1
# [29] = target: Neu5Gc(a2-8)Neu5Gc(a2-3)Gal(b1-4)GlcNAc(b1-3)Gal(b1-4)GlcNAc
# In short: as §1
# [30] = target: Neu5Gc(a2-8)Neu5Gc(a2-6)Gal(b1-4)GlcNAc
# In short: as §1
# [31] = target: Neu5Gc(b2-6)Gal(b1-4)GlcNAc
# In short: as §1
binder,measurement,setting,value
Epa3to2 (Candida glabrata) (protein) MGSSHHHHHHSSGLVPRGSHMKRELSSQNPFGYPIGCSPQDVAIIPGLTMELYSYPIVSGTPPNCYDASYVDPEYPRTGYLKRKMVGKSTGVTGNLNYKYSVEKACMVKYGNLPAGYNYNEPLTVSNFTMILYGYFKAQTTGLHTFFVNADDLLYINFGAGNAFDCCKREDSKTKLGEYVAYDIWHVDSSKNKVSLFLEKDLYYPIRMFFNNRDNNSSLDLSFSVNGATDQISDFSGYLYSVPDQPDTCPAHIGYDTTCR,glycan array binding signal (z-score),[1],1.01
same,glycan array binding signal (z-score),[2],1.15
same,glycan array binding signal (z-score),[3],0.096
same,glycan array binding signal (z-score),[4],-0.638
same,glycan array binding signal (z-score),[5],0.968
same,glycan array binding signal (z-score),[6],-0.449
same,glycan array binding signal (z-score),[7],-0.072
same,glycan array binding signal (z-score),[8],0.097
same,glycan array binding signal (z-score),[9],-0.732
same,glycan array binding signal (z-score),[10],-0.828
same,glycan array binding signal (z-score),[11],0.534
same,glycan array binding signal (z-score),[12],0.003
same,glycan array binding signal (z-score),[13],-0.595
same,glycan array binding signal (z-score),[14],-0.873
same,glycan array binding signal (z-score),[15],-1.11
same,glycan array binding signal (z-score),[16],0.098
same,glycan array binding signal (z-score),[17],-1.22
same,glycan array binding signal (z-score),[18],-0.257
same,glycan array binding signal (z-score),[19],0.144
same,glycan array binding signal (z-score),[20],-0.394
same,glycan array binding signal (z-score),[21],0.038
same,glycan array binding signal (z-score),[22],0.238
same,glycan array binding signal (z-score),[23],-0.277
same,glycan array binding signal (z-score),[24],0.62
same,glycan array binding signal (z-score),[25],0.391
same,glycan array binding signal (z-score),[26],2.12
same,glycan array binding signal (z-score),[27],-1.36
same,glycan array binding signal (z-score),[28],-0.979
same,glycan array binding signal (z-score),[29],-0.803
same,glycan array binding signal (z-score),[30],-0.432
same,glycan array binding signal (z-score),[31],-0.999

# Some of the entries above, set out differently:
binder | measurement | setting | value
Epa3to2 (Candida glabrata) (protein) MGSSHHHHHHSSGLVPRGSHMKRELSSQNPFGYPIGCSPQDVAIIPGLTMELYSYPIVSGTPPNCYDASYVDPEYPRTGYLKRKMVGKSTGVTGNLNYKYSVEKACMVKYGNLPAGYNYNEPLTVSNFTMILYGYFKAQTTGLHTFFVNADDLLYINFGAGNAFDCCKREDSKTKLGEYVAYDIWHVDSSKNKVSLFLEKDLYYPIRMFFNNRDNNSSLDLSFSVNGATDQISDFSGYLYSVPDQPDTCPAHIGYDTTCR | glycan array binding signal (z-score) | [2] | 1.15
same | glycan array binding signal (z-score) | [21] | 0.038
